The text below walks through data of the supplement of paper PMC7877785.

± gives the uncertainty stated by the source. Many of these values have a large error.

The data set in a line: self-splicing fitness, log relative to wild type (ln ratio); higher = more splicing; Tetrahymena group I intron in knt gene, E. coli kanamycin selection, DiMSum; sequences stand for … in CUCUCU…GGAGGGAAAAGUUAUCAGGCAUGCACCUGGUAGCUAGUCUUUAAACCAAUAGAUUGCAUCGGUUUAAAAGGCAAGACCGUCAAAUUGCGGGAAAGGGGUCAACAGCCGUUCAGUACCAAGUCUCAGGGGAAACUUUGAGAUGGCCUUGCAAAGGGUAUGGUAAUAAGCUGACGGACAUGGUCCUAACCACGCAGCCAAGUCCUAAGUCAACAGAUCUUCUGUUGAUAUGGAUGCAGUUCACAGACUAAAUGUCGGUCGGGGAAGAUGUAUUCUUCUCAUAAGAUAUAGUCGGACCUCUCCUUAAUGGGAGCUAGCGGAUGAAGUGAUGCAACACUGGAGCCGCUGGGAACUAAUUUGUAUGCGAAAGUAUAUUGAUUAGUUUUGGAGUACUCGUGGUCG
The gist of the method:
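Pooled colonies went to amplicon sequencing on an Illumina HiSeq 2500 after six replicate transformations. The plates were LB agar with 100 μg/mL carbenicillin, 50 μM IPTG and 0.2% rhamnose, with or without 25 μg/mL kanamycin, incubated overnight at 37°C or 30°C. The E. coli BL21(DE3) library had all eight P1ex-region intron nucleotides randomised, the intron placed in the knt kanamycin-resistance gene on pET-22b(+). DiMSum fitness is the error-weighted combination of replicate fold changes, kanamycin against none, normalised to wild type.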

Take UAGAAGCAAUAUUACGUACC: the “self-splicing fitness (ln)” value (37 °C) is -1.9 ± 0.81.
For the sequence UACGAGCAAUAUUACGAUGC, the “self-splicing fitness (ln)” value (30 °C) is -4.09 ± 0.59.
Still for that read-out and setting: the same measure for AAGGAGCAAUAUUACGGUCA: -3.57 ± 0.74.
On to UACGAGCAAUAUUACGUUCC, for which the “self-splicing fitness (ln)” value (37 °C) was -2.3 ± 1.1.
Still for that read-out and setting: to AGGGAGCAAUAUUACGGCUC belongs -1.61 ± 0.84.
In the case of UCGAAGCAAUAUUACGCCAC, the “self-splicing fitness (ln)” value (30 °C) was -4.22 ± 0.74.
Consider AGUUAGCAAUAUUACGGAGG, for which the “self-splicing fitness (ln)” value by setting is: (30 °C) -2.91 ± 0.3; (37 °C) -2.13 ± 0.41.
On to GACGAGCAAUAUUACGCAUC, for which the “self-splicing fitness (ln)” value (30 °C) was -4.16 ± 1.
Turning to GCUUAGCAAUAUUACGCCAU, where the note is “30 °C”, the “self-splicing fitness (ln)” value was -3.49 ± 0.54.
CUGUAGCAAUAUUACGCGCU: the “self-splicing fitness (ln)” value is, setting by setting: (30 °C) -5.1 ± 0.72; (37 °C) -3.8 ± 0.52.
In the same order, the values of UCUUAGCAAUAUUACGGAAA are -0.692 ± 0.56 and -2.19 ± 0.78.
Consider CACGAGCAAUAUUACGGCCG, for which the “self-splicing fitness (ln)” value runs as follows: (30 °C) -0.354 ± 0.094; (37 °C) -0.105 ± 0.13.
In the case of GGUCAGCAAUAUUACGCGAU, the “self-splicing fitness (ln)” value (37 °C) is -3.45 ± 0.52.
With UGUCAGCAAUAUUACGUCUG, the “self-splicing fitness (ln)” value is, setting by setting: (30 °C) -0.693 ± 0.1; (37 °C) -0.104 ± 0.11.
In the same order, the values of CAGAAGCAAUAUUACGGCGA are -1.43 ± 0.15 and -1.5 ± 0.18.
In the same order, the values of CACGAGCAAUAUUACGCAAU are -4.23 ± 0.19 and -2.99 ± 0.16.
As to UAAGAGCAAUAUUACGCACC, the “self-splicing fitness (ln)” value (30 °C) is -3.21 ± 1.1.
For the sequence AAAGAGCAAUAUUACGUUGG, the “self-splicing fitness (ln)” value runs as follows: (30 °C) -3.59 ± 0.22; (37 °C) -2.4 ± 0.25.
Take GAGGAGCAAUAUUACGCCGC: the “self-splicing fitness (ln)” value reads like this: (30 °C) -3.42 ± 1; (37 °C) -3.39 ± 1.
The like results for GCAAAGCAAUAUUACGGUGG were, in that order, -2.27 ± 0.12 and -2.43 ± 0.19.
In the same order, the values of AUAAAGCAAUAUUACGAAGG are -2.1 ± 0.081 and -1.41 ± 0.12.
Consider CUAUAGCAAUAUUACGCACC, for which the “self-splicing fitness (ln)” value (37 °C) is -0.675 ± 0.51.
The same measure, in the same setting: to UUUUAGCAAUAUUACGAUAC belongs -1.43 ± 0.55.
Consider ACUCAGCAAUAUUACGCCAC, for which the “self-splicing fitness (ln)” value (37 °C) was -3.13 ± 0.6.
For GACGAGCAAUAUUACGCUGC, under “30 °C”, the “self-splicing fitness (ln)” value was -3.57 ± 1.
Still for that read-out and setting: to GAGAAGCAAUAUUACGGCUC belongs -1.74 ± 0.59.
GACGAGCAAUAUUACGAGAA: the “self-splicing fitness (ln)” value (30 °C) was -1.55 ± 0.76 and the “self-splicing fitness (ln)” value (37 °C) was -2.77 ± 1.1.
Regarding CAUGAGCAAUAUUACGCUAA, the “self-splicing fitness (ln)” value (30 °C) was -4.01 ± 0.6.
In the case of GGAUAGCAAUAUUACGGAAA, the “self-splicing fitness (ln)” value is, setting by setting: (30 °C) -3.2 ± 0.52; (37 °C) -3.06 ± 0.61.
With CGGUAGCAAUAUUACGAUAC, under “37 °C”, the “self-splicing fitness (ln)” value is -3.63 ± 0.73.
Turning to ACCGAGCAAUAUUACGGUAA, the “self-splicing fitness (ln)” value is, setting by setting: (30 °C) -2.6 ± 0.18; (37 °C) -1.7 ± 0.12.
In the same order, the values of CAAGAGCAAUAUUACGGUGA are -3.01 ± 0.2 and -1.88 ± 0.21.
The like results for AUUUAGCAAUAUUACGGGCC were, in that order, -3.15 ± 0.74 and -1.79 ± 0.53.
For the sequence UAGUAGCAAUAUUACGGAGG, the “self-splicing fitness (ln)” value (30 °C) is -3.49 ± 0.54.
On to CAGCAGCAAUAUUACGAGUG, for which the “self-splicing fitness (ln)” value (30 °C) was -1.54 ± 0.056 and the “self-splicing fitness (ln)” value (37 °C) is -0.155 ± 0.074.
UGGGAGCAAUAUUACGCAAA: under “30 °C”, the “self-splicing fitness (ln)” value is -2.25 ± 0.57.
As for GGUUAGCAAUAUUACGAGGC, the “self-splicing fitness (ln)” value (30 °C) was -3.39 ± 1 and the “self-splicing fitness (ln)” value (37 °C) is -3.73 ± 0.73.
In the case of CCGAAGCAAUAUUACGCCCU, the “self-splicing fitness (ln)” value (30 °C) was -4.8 ± 1.
UUGUAGCAAUAUUACGGGGA: the “self-splicing fitness (ln)” value (30 °C) is -1.98 ± 0.26 and the “self-splicing fitness (ln)” value (37 °C) was -0.346 ± 0.17.
As to GUAUAGCAAUAUUACGCUUC, the “self-splicing fitness (ln)” value (37 °C) is -0.333 ± 0.93.
On the same count and under the same terms, to UAAGAGCAAUAUUACGUCCC belongs -3.03 ± 0.53.
